Measurements as given in publication PMC8391706.
No constants are given. Whether binding was seen depends on the method and setting. For part of these data: In cells and extracts the contact can be indirect. Some results given as binding are weak or reduced against the parent protein; the word gives no strength. Values belong to the substance of their own block, whether it stands above or below them.

Amino acid sequences for entries named in this document (tags omitted).
UniProt P14618: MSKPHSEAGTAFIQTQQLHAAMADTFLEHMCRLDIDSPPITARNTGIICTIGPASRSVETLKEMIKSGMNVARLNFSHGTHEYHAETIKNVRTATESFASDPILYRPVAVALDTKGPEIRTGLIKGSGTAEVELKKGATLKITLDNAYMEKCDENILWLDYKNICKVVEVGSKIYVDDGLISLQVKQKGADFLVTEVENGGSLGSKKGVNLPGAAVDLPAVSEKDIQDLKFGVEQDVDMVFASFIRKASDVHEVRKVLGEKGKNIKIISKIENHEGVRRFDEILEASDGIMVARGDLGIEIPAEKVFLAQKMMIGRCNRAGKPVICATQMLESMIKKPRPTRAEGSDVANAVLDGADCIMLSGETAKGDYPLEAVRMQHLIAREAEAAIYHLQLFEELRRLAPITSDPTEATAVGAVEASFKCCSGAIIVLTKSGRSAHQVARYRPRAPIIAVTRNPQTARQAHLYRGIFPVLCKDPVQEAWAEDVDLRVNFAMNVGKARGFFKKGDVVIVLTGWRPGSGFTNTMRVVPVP

Legend:
recombinant PSAT1 = biological target: T1, recombinant PSAT1 (UniProt Q9Y617); assay: co-IP; 50 ng recPSAT1 mixed with 500 ng recPKM1 or recPKM2 in IP lysis buffer; precipitated with anti-PSAT1, immunoblot with anti-PKM1, anti-PKM2, anti-PSAT1; recPSAT1 alone as control; both purified
T1 sequence: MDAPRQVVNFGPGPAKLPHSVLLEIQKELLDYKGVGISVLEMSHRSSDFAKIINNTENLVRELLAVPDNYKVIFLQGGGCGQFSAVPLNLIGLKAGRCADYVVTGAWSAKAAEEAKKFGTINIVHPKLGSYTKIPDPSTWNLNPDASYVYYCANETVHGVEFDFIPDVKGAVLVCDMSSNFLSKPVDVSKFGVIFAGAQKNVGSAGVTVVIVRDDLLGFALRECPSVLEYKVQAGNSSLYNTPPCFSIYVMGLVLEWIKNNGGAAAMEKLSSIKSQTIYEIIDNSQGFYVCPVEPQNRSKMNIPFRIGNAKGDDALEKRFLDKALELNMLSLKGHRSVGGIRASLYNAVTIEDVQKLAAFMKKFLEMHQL

[1] = biological target: T2, endogenous PSAT1 (phosphoserine aminotransferase 1) (human (endogenous in HEK293T, A549, PC9)) (UniProt Q9Y617); assay: co-IP; HEK293T transfected with FLAG-PKM2 WT or mutants (MT1-4); endogenous PSAT1 precipitated with anti-PSAT1 from 1 mg lysate (Protein G Dynabeads); immunoblot
T2 sequence: T1 sequence

[2] = biological target: T2, endogenous PSAT1 (phosphoserine aminotransferase 1) (human (endogenous in HEK293T, A549, PC9)); assay: co-IP; endogenous proteins; A549 and PC9 whole-cell lysate (1 mg) precipitated with anti-PSAT1 or rabbit IgG (Protein G Dynabeads); immunoblot with anti-PKM2

binding (recombinant PSAT1): binds
Substance: human recombinant PKM2 (pyruvate kinase M2) (from UniProt P14618 1-531) (enzyme)

binding [1]: binds
Substance: FLAG-PKM2 wild-type (from UniProt P14618 1-531) (enzyme)

binding [2]: binds
Substance: endogenous PKM2 (pyruvate kinase M2) (from UniProt P14618 1-531) (enzyme)
